# Results deposited as PubChem BioAssay AID504793 (Drosophila RNAi Screening Center, 2011).
# Purpose: 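Knock-downs allowing continued mitosis even though DNA is damaged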 (primary screen)
# Cell system: Drosophila S2R+ cells
# Knock-down reagent: long dsRNA against Drosophila genes, about 0.25 µg dsRNA per well
# Time to read-out: 4 days of dsRNA, then 4 hours of drug before read-out
# Treatment: doxorubicin 0.5 µM for 4 hours to cause double-strand breaks, in cells also given a low, harmless dose of dsRNA against nbs to sensitise the assay
# Measurement: 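Per-well count of mitotic cells stained for phospho-histone H3 after doxorubicin exposure, used as mitotic index; counts are raw and not normalised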
# Scale: mitotic cells: higher = more cells in mitosis, weaker G2 arrest
# Active means: 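Genes are called active only when high mitotic counts were reproduced with independent dsRNAs and mitosis was checked for delay without damage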
# Calls: active = confirmed in follow-up tests; inactive = not confirmed
# The deposit covers about 23,000 reagents; shown is an unselected part of those with a known target gene and a result. Over the whole deposit, 62 (0.27%) were called active. 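Calls come from follow-up tests whose scores are not deposited, so confirmed genes may have low counts here; counts are not normalised per plate.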 Raw values vary from plate to plate and are shown uncorrected. A plus sign joins genes that one reagent is predicted to hit.
predicted target,dsRNA,"mitotic cells, replicate 1","mitotic cells, replicate 2",call
CG15673,DRSC04263,3,,inactive
hubl (hug-bell),DRSC06825,4,,inactive
Lrch (Leucine-rich-repeats and calponin homology domain protein),DRSC02996,4,,inactive
Lrch (Leucine-rich-repeats and calponin homology domain protein),DRSC29145,5,,inactive
Cnot4 (CCR4-NOT transcription complex subunit 4),DRSC02830,11,,inactive
Cnot4 (CCR4-NOT transcription complex subunit 4),DRSC02831,15,,inactive
NTPase,DRSC00761,4,,inactive
NTPase,DRSC26233,7,,inactive
noi (noisette),DRSC12383,5,,inactive
noi (noisette),DRSC26152,3,,inactive
Skp2 (S-phase kinase-associated protein 2),DRSC12329,11,,inactive
Skp2 (S-phase kinase-associated protein 2),DRSC28203,13,,inactive
CG14086,DRSC10090,7,,inactive
EndoU (Endoribonuclease U-specific),DRSC15472,15,,inactive
Chi (Chip),DRSC04602,5,,inactive
Chi (Chip),DRSC28484,8,,inactive
spdo (sanpodo),DRSC13988,10,,inactive
spdo (sanpodo),DRSC24230,6,,inactive
RyR (Ryanodine receptor),DRSC07543,3,,inactive
CG6628,DRSC10679,4,,inactive
Obp50a (Odorant-binding protein 50a),DRSC22152,10,,inactive
Obp50a (Odorant-binding protein 50a),DRSC28404,5,,inactive
CG3420,DRSC04995,5,,inactive
CG4666,DRSC18379,13,,inactive
Syn (Synapsin),DRSC16876,5,,inactive
Syn (Synapsin),DRSC26448,9,,inactive
Nrd1 (Nardilysin),DRSC19830,9,,inactive
CG4452,DRSC10422,6,,inactive
Mmp2 (Matrix metalloproteinase 2),DRSC06698,6,,inactive
Mmp2 (Matrix metalloproteinase 2),DRSC22024,14,,inactive
Mmp2 (Matrix metalloproteinase 2),DRSC25458,11,,inactive
CG30369,DRSC21996,8,,inactive
CG30369,DRSC29843,3,,inactive
Antp (Antennapedia),DRSC23104,11,,inactive
Antp (Antennapedia),DRSC26749,4,,inactive
CG4390,DRSC15572,10,,inactive
CG4390,DRSC26410,6,,inactive
sli (slit),DRSC07684,12,,inactive
sli (slit),DRSC29578,4,,inactive

7 entries from above, arranged by “mitotic cells, replicate 1”, lowest first:
predicted target,dsRNA,"mitotic cells, replicate 1","mitotic cells, replicate 2",call
noi (noisette),DRSC26152,3,,inactive
NTPase,DRSC00761,4,,inactive
Lrch (Leucine-rich-repeats and calponin homology domain protein),DRSC29145,5,,inactive
noi (noisette),DRSC12383,5,,inactive
NTPase,DRSC26233,7,,inactive
Cnot4 (CCR4-NOT transcription complex subunit 4),DRSC02830,11,,inactive
Cnot4 (CCR4-NOT transcription complex subunit 4),DRSC02831,15,,inactive

The results go on.
predicted target,dsRNA,"mitotic cells, replicate 1","mitotic cells, replicate 2",call
CG5568,DRSC10518,13,,inactive
CG5568,DRSC22816,10,,inactive
CG5568,DRSC24887,9,,inactive
Larp4B (La-related protein 4B),DRSC23201,7,,inactive
Larp4B (La-related protein 4B),DRSC29411,4,,inactive
CG3251,DRSC00586,4,,inactive
cn (cinnabar),DRSC07594,7,,inactive
eIF3g2 (eukaryotic translation initiation factor 3 subunit g2),DRSC14275,3,,inactive
eIF3g2 (eukaryotic translation initiation factor 3 subunit g2),DRSC28960,8,,inactive
CG10311,DRSC14228,5,,inactive
CG32284,DRSC08025,29,,inactive
Nup160 + RfC38,DRSC01997,6,,inactive
CG9143,DRSC07338,3,,inactive
CG32806,DRSC21699,11,,inactive
CG32806,DRSC28307,8,,inactive
Myo31DF (Myosin 31DF),DRSC03376,4,,inactive
Myo31DF (Myosin 31DF),DRSC22702,7,,inactive
Myo31DF (Myosin 31DF),DRSC25363,7,,inactive
Idi (Isopentenyl-diphosphate delta isomerase),DRSC15918,2,,inactive
Ir76b (Ionotropic receptor 76b),DRSC10831,9,,inactive
CG14543,DRSC14887,4,,inactive
CG14543,DRSC26647,2,,inactive
CG13064,DRSC09947,2,,inactive
CG15036,DRSC17968,5,,inactive
CG15036,DRSC26078,2,,inactive
Eogt (EGF-domain O-GlcNAc transferase),DRSC00727,6,,inactive
Eogt (EGF-domain O-GlcNAc transferase),DRSC26180,1,,inactive
Acyp2 (Acylphosphatase 2),DRSC15336,6,,inactive
CG13050,DRSC09931,3,,inactive
CG3008,DRSC00560,6,,inactive
CG33941,DRSC37786,4,,inactive
CG33941,DRSC39124,12,,inactive
CG33941,DRSC39125,12,,inactive
CG17078,DRSC00484,7,,inactive
CG17078,DRSC24862,8,,inactive
5PtaseI (Inositol polyphosphate-5-phosphatase type I),DRSC16269,8,,inactive
5PtaseI (Inositol polyphosphate-5-phosphatase type I),DRSC22090,10,,inactive
5PtaseI (Inositol polyphosphate-5-phosphatase type I),DRSC28773,10,,inactive
galectin,DRSC00305,5,,inactive
gus (gustavus),DRSC04885,5,,inactive
gus (gustavus),DRSC04886,6,11,inactive
gus (gustavus),DRSC27153,6,,inactive
Pi3K92E (Phosphatidylinositol 3-kinase 92E),DRSC16788,7,,inactive
Cpr100A (Cuticular protein 100A),DRSC14465,5,,inactive
Cpr100A (Cuticular protein 100A),DRSC28530,7,,inactive
CG17929,DRSC15291,7,,inactive
CG6059,DRSC15958,9,,inactive
CG30344,DRSC22510,7,,inactive
CG30344,DRSC26387,6,,inactive
CG10063,DRSC09688,1,,inactive
CG10063,DRSC28872,10,,inactive
baf (barrier to autointegration factor),DRSC03051,8,,inactive
baf (barrier to autointegration factor),DRSC26974,5,,inactive
CG33333,DRSC13233,6,,inactive
cg (combgap),DRSC23142,7,,inactive
cg (combgap),DRSC28656,3,,inactive
CG3556,DRSC18309,3,,inactive
CG3556,DRSC27365,3,,inactive
Jon99Ciii + Jon99Fi + Jon99Fii + 1 more,DRSC29104,3,,inactive
CG30487,DRSC05377,8,,inactive
CG7156,DRSC16207,5,,inactive
CG7156,DRSC27345,8,,inactive
"AlaRS-m (Alanyl-tRNA synthetase, mitochondrial)",DRSC09660,7,,inactive
"AlaRS-m (Alanyl-tRNA synthetase, mitochondrial)",DRSC28250,11,,inactive
CG15130,DRSC02430,7,,inactive
pdm2 (POU domain protein 2),DRSC02496,4,,inactive
pdm2 (POU domain protein 2),DRSC03587,4,,inactive
CG33177,DRSC19949,9,,inactive
asun (asunder),DRSC16733,9,,inactive
Klp61F (Kinesin-like protein at 61F),DRSC08671,147,,inactive
Klp61F (Kinesin-like protein at 61F),DRSC28179,87,,inactive
